For part of these data: Negatives hold for the conditions tested. Protein sequences can lack the tags named with them. For part of these data: The comparison behind a weaker result is the experiment's own reference, which may not be listed here. For part of these data: For at least one entry, the source does not settle the construct or the ends of the probe. For part of these data: At least one verdict rests on a figure or table, not on a statement of the authors.

Data set [1] concerns the target T1, SDN1 wild type (Arabidopsis thaliana) (UniProt A3KPE8).
T1 sequence (looked up): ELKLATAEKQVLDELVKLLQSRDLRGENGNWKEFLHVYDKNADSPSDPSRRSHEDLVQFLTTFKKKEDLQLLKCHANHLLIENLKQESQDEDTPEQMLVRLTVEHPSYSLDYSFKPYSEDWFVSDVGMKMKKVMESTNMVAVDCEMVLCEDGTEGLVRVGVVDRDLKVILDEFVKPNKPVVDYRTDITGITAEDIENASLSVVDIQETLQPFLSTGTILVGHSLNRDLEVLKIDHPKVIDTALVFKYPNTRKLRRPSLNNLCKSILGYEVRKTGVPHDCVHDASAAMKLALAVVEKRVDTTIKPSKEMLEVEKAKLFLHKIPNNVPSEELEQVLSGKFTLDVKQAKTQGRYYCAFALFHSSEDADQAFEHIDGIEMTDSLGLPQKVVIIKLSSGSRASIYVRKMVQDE
Kind of data set: EMSA. As to conditions: no Mg2+, EMSA: 50 mM Tris pH 8.0, 100 mM NaCl, 1 mM DTT, 2 nM RNA, on ice 30 min, 8% native PAGE in 0.5x TBE, recombinant protein, residues 2-409, protein details: His-SUMO tag removed. (In general: In EMSA bound probe runs differently from free probe, usually more slowly.)

In data set [2] the target is T2, SDN1 ΔC (Arabidopsis thaliana) (UniProt A3KPE8).
T2 sequence (looked up): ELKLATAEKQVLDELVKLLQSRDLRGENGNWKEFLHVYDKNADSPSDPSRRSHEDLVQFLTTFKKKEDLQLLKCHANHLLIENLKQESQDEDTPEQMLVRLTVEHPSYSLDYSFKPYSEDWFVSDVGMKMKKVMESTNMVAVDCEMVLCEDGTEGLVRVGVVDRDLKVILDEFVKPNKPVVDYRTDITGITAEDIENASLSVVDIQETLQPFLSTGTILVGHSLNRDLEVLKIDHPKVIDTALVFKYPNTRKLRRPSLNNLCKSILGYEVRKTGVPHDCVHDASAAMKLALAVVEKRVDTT
Kind of data set: UV crosslinking (5-iodoU, 312 nm). The settings on record: recombinant protein, residues 2-302, protein details: His-SUMO tag removed.

In data set [3] the target is T1, SDN1 wild type (Arabidopsis thaliana). Put plainly: UV crosslinking (5-iodoU, 312 nm). As to conditions: no crosslink at this position only (duplex region); 5-iodoU at 15,16 of strand 2; recombinant protein; residues 2-409; protein details: His-SUMO tag removed; label: 5' 32P on target strand.
Data set [4] concerns the target T3, SDN1 RRM (CTD, EMSA) (Arabidopsis thaliana) (UniProt A3KPE8).
T3 sequence (looked up): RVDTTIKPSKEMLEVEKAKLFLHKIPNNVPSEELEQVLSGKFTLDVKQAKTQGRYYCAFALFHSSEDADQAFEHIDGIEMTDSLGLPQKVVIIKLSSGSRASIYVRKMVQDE
Put plainly: EMSA. As to conditions: no Mg2+, EMSA: 50 mM Tris pH 8.0, 100 mM NaCl, 1 mM DTT, 2 nM RNA, on ice 30 min, 8% native PAGE in 0.5x TBE, recombinant protein, residues 298-409, protein details: His-SUMO tag removed, label: 5' 32P.

For data set [5], the target named is T2, SDN1 ΔC (Arabidopsis thaliana). Kind of data set: EMSA. The settings on record: no Mg2+, EMSA: 50 mM Tris pH 8.0, 100 mM NaCl, 1 mM DTT, 2 nM RNA, on ice 30 min, 8% native PAGE in 0.5x TBE, recombinant protein, residues 2-302, protein details: His-SUMO tag removed, label: 5' 32P.

With GAGAAAUCAC [10nt RNA], the binding result in data set [1] (label: 5' 32P) is “binds more weakly”.

For the sequence AAUCAC [6nt RNA], in data set [1] (label: 5' 32P), the binding result is recorded as “binds more weakly”. In the case of “UCGGACCAGGCUUCAUCCCCC / GAUUCCCUUGAAGCUUGGUCCGGAUUA [miR166:5'-IUU]”, in data set [2] (very weak, 5-iodoU at 3,4 of strand 2, label: 5' 32P on target strand), the binding result is given as “binds more weakly”. For the sequence UGCAGAGAGAAAUCAC [16nt RNA], the binding result in data set [1] (label: 5' 32P) is “binds”. Consider “UCGGACCAGGCUUCAUCCCCC / GAUUCCCUUGAAGCUUGGUCCGGAUUA [miR166:M-IUU]”, for which the binding result is on record as “no binding” in data set [3] and “no binding” in data set [2] (no crosslink at this position only (duplex region), 5-iodoU at 15,16 of strand 2, label: 5' 32P on target strand). As to “GAUUCCCUUGAAGCUUGGUCCGGAUUA [5'-IUU RNA]”, in data set [2] (no crosslink at 5' position, 5-iodoU at 3,4, label: 32P), the binding result is on record as “no binding”. In the case of “UCGGACCAGGCUUCAUCCCCC / GAUUCCCCUGAAGCUUGGUCCGGAUUA [miR166:T6]”, in data set [1] (label: 5' 32P on miR166 strand), the binding result is “binds”. In the case of “UUCGCUUGCAGAGAGAAAUCAC [miR173 (22 nt RNA)]”, the binding result in data set [4] and in data set [5] was “binds more weakly” throughout.

As for “UCGGACCAGGCUUCAUCCCCC / GAGGGGGAUGAAGCUUGGUCCGGAUUA [miR166:T0]”, the binding result in data set [1] (label: 5' 32P on miR166 strand) is listed as “binds more weakly”.

“UCGGACCAGGCUUCAUCCCCC / GAUUGGGAUGAAGCUUGGUCCGGAUUA [miR166:T2]”: the binding result in data set [1] (label: 5' 32P on miR166 strand) is on record as “binds more weakly”.
